In the supplement of paper PMC10849652:
The other results are listed elsewhere or left out.

Chains of the proteins cited; added tags and fusions are not shown. Lines headed by an entry give the natural chain unless they say otherwise; changes in a name come on top.
UniProt P49641: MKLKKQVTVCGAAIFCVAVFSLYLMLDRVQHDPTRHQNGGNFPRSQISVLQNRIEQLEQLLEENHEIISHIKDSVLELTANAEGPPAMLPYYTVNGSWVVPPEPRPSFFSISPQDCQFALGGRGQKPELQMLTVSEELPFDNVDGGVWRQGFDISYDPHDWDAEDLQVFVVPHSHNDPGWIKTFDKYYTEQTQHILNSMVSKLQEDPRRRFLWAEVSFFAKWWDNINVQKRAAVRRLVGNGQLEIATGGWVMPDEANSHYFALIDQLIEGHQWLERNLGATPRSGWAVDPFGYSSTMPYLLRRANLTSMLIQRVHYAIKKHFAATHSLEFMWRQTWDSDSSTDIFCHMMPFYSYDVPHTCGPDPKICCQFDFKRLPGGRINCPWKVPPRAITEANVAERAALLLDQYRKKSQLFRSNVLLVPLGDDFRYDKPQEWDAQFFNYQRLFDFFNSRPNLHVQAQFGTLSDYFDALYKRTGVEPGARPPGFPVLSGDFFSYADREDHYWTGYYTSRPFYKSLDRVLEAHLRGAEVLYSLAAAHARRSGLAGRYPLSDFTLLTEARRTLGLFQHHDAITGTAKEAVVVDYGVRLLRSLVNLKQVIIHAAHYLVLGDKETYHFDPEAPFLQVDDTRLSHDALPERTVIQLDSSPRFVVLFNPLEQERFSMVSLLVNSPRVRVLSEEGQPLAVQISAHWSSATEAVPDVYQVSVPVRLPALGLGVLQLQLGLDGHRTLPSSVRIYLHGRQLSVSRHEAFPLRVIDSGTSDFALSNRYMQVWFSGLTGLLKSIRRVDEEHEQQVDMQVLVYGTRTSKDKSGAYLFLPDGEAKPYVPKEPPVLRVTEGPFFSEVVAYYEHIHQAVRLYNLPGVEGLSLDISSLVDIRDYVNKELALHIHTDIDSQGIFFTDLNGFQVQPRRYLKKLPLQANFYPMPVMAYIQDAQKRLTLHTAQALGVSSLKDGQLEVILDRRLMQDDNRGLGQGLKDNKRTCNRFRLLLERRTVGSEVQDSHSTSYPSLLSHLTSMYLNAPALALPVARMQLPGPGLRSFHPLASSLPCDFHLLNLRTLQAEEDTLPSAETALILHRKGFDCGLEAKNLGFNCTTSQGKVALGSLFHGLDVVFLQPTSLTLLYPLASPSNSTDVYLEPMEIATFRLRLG
UniProt Q5SRI9: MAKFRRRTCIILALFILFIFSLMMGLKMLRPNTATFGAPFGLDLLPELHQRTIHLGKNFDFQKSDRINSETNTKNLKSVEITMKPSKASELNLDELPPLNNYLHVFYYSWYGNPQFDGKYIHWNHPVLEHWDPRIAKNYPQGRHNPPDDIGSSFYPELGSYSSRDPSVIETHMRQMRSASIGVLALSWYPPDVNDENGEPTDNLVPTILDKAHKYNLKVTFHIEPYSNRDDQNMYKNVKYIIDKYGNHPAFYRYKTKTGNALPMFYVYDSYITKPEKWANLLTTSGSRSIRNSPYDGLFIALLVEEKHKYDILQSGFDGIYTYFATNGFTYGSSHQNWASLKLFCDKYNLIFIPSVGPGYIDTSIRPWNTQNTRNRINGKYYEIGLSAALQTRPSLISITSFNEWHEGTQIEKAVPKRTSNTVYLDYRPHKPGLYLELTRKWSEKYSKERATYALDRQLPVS
UniProt Q8WZA0: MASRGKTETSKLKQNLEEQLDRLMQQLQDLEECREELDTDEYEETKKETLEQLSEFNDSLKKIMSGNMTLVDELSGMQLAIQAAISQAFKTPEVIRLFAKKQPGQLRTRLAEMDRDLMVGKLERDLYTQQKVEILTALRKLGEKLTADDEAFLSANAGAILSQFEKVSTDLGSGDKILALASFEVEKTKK
UniProt Q9NTJ4: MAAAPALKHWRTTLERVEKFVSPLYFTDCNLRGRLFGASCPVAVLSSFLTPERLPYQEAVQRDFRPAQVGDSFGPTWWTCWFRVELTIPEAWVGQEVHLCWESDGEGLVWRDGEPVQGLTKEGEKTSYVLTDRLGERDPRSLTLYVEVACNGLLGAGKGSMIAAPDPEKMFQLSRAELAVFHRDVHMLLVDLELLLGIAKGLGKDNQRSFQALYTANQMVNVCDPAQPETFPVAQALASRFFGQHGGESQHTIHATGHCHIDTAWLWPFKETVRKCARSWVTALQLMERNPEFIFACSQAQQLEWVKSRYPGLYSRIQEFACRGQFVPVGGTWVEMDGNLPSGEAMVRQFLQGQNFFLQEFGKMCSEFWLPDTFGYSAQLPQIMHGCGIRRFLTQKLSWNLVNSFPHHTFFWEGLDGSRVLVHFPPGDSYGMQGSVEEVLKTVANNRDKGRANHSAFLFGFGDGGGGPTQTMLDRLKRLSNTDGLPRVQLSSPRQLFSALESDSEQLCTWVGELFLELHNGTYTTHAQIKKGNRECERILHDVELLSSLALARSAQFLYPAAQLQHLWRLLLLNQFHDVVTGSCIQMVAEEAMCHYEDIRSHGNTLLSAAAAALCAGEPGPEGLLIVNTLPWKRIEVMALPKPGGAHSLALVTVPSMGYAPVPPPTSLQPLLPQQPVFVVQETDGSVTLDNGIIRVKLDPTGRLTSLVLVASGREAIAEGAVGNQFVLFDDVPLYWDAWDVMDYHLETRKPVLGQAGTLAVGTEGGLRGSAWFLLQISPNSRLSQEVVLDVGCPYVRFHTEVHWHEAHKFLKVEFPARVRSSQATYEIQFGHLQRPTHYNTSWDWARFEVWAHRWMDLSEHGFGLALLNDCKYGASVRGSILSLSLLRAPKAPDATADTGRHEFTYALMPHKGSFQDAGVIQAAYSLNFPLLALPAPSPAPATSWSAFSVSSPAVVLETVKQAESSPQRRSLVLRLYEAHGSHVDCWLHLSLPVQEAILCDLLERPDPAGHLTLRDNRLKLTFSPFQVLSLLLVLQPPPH
UniProt Q9NQ48: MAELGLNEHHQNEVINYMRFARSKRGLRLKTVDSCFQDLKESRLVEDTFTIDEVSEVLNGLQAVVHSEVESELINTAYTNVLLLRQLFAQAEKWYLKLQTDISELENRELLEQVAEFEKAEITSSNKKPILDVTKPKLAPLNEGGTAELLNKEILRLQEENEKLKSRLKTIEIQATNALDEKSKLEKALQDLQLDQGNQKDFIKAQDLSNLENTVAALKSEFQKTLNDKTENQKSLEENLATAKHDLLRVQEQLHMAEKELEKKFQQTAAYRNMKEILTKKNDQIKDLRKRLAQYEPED
UniProt P55145: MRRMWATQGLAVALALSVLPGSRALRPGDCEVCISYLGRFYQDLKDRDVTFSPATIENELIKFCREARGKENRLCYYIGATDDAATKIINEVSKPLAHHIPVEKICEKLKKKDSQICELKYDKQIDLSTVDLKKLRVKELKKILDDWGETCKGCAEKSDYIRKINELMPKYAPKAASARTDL
UniProt P20645: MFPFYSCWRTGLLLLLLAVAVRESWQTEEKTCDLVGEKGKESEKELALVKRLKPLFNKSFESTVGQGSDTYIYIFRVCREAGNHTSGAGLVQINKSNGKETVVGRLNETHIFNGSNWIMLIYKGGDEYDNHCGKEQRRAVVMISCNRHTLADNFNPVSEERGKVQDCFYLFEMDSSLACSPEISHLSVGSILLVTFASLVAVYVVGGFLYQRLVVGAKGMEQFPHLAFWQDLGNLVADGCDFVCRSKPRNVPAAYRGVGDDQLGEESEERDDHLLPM
UniProt P27361, whole entry, looked up: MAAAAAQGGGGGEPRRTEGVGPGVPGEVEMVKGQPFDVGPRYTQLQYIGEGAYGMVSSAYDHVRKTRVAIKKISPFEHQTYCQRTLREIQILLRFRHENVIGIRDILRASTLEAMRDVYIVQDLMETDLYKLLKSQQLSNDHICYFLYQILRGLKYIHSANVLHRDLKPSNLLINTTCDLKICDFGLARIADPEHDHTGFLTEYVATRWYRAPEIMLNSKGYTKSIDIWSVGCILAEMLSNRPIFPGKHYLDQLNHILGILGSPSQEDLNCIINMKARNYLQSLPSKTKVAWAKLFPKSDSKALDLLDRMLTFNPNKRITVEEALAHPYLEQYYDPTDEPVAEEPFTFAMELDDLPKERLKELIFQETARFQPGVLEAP
UniProt Q16706: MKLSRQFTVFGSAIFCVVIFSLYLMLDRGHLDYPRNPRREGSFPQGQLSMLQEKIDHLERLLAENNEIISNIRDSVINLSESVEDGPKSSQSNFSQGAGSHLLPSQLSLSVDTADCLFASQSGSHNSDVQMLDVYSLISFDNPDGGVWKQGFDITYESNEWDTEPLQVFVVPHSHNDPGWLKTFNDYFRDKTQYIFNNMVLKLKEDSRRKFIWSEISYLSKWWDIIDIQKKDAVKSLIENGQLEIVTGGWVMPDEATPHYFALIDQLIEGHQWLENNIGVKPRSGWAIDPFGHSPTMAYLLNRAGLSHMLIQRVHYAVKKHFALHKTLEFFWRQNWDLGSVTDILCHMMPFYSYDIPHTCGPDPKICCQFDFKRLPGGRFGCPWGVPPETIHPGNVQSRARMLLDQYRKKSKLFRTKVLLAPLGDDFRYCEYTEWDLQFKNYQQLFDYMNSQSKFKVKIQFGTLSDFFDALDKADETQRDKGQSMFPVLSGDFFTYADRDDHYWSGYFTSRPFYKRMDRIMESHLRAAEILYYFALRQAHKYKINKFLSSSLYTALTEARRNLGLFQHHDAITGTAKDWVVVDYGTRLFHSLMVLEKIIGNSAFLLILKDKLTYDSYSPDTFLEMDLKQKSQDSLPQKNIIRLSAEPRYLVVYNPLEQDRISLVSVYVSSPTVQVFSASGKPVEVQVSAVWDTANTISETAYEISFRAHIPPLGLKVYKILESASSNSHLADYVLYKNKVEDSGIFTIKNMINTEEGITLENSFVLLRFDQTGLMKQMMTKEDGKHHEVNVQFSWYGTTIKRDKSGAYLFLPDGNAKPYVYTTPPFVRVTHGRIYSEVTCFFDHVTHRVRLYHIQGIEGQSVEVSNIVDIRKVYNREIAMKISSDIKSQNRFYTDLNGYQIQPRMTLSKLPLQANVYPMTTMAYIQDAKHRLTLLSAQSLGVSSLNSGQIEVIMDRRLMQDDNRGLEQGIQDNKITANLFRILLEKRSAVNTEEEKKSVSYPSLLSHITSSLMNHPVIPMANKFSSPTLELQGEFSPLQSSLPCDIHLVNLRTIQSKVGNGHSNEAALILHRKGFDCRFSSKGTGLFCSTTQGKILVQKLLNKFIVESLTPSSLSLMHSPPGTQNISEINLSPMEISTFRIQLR
UniProt P62312: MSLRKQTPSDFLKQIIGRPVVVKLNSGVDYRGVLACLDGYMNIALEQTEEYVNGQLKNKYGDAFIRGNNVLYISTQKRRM
UniProt Q5VWZ2: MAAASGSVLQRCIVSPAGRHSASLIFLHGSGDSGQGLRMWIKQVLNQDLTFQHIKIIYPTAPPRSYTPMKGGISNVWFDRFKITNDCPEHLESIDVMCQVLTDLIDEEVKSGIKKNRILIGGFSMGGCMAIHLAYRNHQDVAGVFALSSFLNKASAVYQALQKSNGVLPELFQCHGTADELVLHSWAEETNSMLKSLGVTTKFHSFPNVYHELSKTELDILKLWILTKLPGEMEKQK
UniProt Q9NU23: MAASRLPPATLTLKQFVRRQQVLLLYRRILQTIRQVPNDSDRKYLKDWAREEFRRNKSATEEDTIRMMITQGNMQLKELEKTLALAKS
UniProt P56192: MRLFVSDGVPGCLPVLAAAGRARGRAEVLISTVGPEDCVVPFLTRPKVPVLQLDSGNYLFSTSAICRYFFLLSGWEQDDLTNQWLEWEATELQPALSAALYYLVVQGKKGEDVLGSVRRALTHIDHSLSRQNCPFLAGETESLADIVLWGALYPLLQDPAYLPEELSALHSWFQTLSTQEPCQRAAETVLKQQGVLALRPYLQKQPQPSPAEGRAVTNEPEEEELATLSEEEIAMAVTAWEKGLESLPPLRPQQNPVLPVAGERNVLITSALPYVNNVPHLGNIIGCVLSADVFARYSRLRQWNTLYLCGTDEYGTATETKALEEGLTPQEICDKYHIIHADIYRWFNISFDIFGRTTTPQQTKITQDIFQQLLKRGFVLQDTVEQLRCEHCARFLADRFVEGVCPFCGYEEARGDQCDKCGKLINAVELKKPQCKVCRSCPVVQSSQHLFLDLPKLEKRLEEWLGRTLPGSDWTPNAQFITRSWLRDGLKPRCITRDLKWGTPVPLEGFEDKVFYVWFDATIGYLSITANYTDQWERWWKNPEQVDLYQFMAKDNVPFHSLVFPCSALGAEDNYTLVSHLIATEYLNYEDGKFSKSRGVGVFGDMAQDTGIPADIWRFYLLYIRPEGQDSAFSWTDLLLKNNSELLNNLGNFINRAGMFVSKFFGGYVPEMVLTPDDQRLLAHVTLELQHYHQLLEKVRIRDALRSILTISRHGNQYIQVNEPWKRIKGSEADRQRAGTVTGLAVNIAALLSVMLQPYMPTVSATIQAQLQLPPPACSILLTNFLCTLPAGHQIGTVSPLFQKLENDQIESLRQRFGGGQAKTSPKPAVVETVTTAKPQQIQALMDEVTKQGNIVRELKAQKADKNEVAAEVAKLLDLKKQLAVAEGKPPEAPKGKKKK

Key:
Assay in all cases: log2 fold change, soluble protein after heating vs DMSO (PISA); higher = thermal stabilisation; K562 cells, 10 uM, 30 min; active = over 0.2 and 3.5 SD of the protein, either way, in both replicates (recomputed)
[1] = compound: CS(=O)(=O)c1ccc(-c2cnc(N)c(C(=O)Nc3ccccc3)n2)cc1
In short: (§1)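 Soluble protein was defined as the supernatant after 21,000xg for 90 min. It came from K562 cells at 2×10^6 cells/mL given 10 μM compound for 30 min, heated in aliquots for 3 min across 48°C-58°C, pooled, and extracted in PBS with 0.5% NP-40 at 4°C, and was quantified by TMTpro 16plex LC-MS/MS with equalised channel sums. Thermal stability against control samples, from duplicates, is reported as log2 fold change.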

crizotinib = compound: C[C@@H](Oc1cc(-c2cnn(C3CCNCC3)c2)cnc1N)c1c(Cl)ccc(F)c1Cl [crizotinib]
In short: as §1

[2] = compound: C[C@@H]1COCCN1C2=NC(=NC(=C2)C3(CC3)S(=O)(=O)C)C4=C5C=CNC5=CC=C4
In short: as §1

[3] = compound: C[C@H](C1=CC=C(C=C1)C(=O)NC2=C3C=CNC3=NC=C2)N
In short: as §1

duvelisib = compound: C[C@H](Nc1ncnc2nc[nH]c12)c1cc2cccc(Cl)c2c(=O)n1-c1ccccc1 [duvelisib]
In short: as §1

gandotinib = compound: Cc1cc(Nc2cc(CN3CCOCC3)c3nc(C)c(Cc4ccc(Cl)cc4F)n3n2)n[nH]1 [gandotinib]
In short: as §1

tozasertib = compound: Cc1cc(Nc2cc(N3CCN(C)CC3)nc(Sc3ccc(NC(=O)C4CC4)cc3)n2)n[nH]1 [tozasertib]
In short: as §1

[4] = compound: Cc1cc(SCc2sc(-c3ccc(C(F)(F)F)cc3)nc2C)ccc1OCC(=O)O
In short: as §1

doramapimod = compound: Cc1ccc(-n2nc(C(C)(C)C)cc2NC(=O)Nc2ccc(OCCN3CCOCC3)c3ccccc23)cc1 [doramapimod]
In short: as §1

ispinesib = compound: Cc1ccc(C(=O)N(CCCN)[C@@H](c2nc3cc(Cl)ccc3c(=O)n2Cc2ccccc2)C(C)C)cc1 [ispinesib]
In short: as §1

bafetinib = compound: Cc1ccc(NC(=O)c2ccc(CN3CC[C@H](N(C)C)C3)c(C(F)(F)F)c2)cc1Nc1nccc(-c2cncnc2)n1 [bafetinib]
In short: as §1

[5] = compound: Cc1cccc(CC(=O)N2CCc3c2ccc(-c2cn(C)c4ncnc(N)c24)c3F)n1
In short: as §1

nilotinib = compound: Cc1cn(-c2cc(NC(=O)c3ccc(C)c(Nc4nccc(-c5cccnc5)n4)c3)cc(C(F)(F)F)c2)cn1 [nilotinib]
In short: as §1

[6] = compound: Cc1nc(Nc2n[nH]c3c2CN(C(=O)N[C@H](CN(C)C)c2ccccc2)C3(C)C)c2sccc2n1
In short: as §1

dasatinib = compound: Cc1nc(Nc2ncc(C(=O)Nc3c(C)cccc3Cl)s2)cc(N2CCN(CCO)CC2)n1 [dasatinib]
In short: as §1

[7] = compound: Cc1ncc(-c2ccnc(Nc3ccc(S(C)(=O)=O)cc3)n2)n1C(C)C
In short: as §1

[8] = compound: Cn1cc(-c2ccc3c(c2)CCN3C(=O)Cc2cccc(C(F)(F)F)c2)c2c(N)ncnc21
In short: as §1

[9] = compound: Cn1cc(-c2ccc3nnc(C(F)(F)c4ccc5ncccc5c4)n3n2)cn1
In short: as §1

tipifarnib = compound: Cn1cncc1[C@@](N)(c1ccc(Cl)cc1)c1ccc2c(c1)c(-c1cccc(Cl)c1)cc(=O)n2C [tipifarnib]
In short: as §1

mubritinib = compound: FC(F)(F)c1ccc(/C=C/c2nc(COc3ccc(CCCCn4ccnn4)cc3)co2)cc1 [mubritinib]
In short: as §1

Measured: log2 fold change

MAN2A2 (UniProt P49641)
inactive: [1] 0.015 | crizotinib 0.055 | [2] -0.038 | [3] 0.086 | duvelisib -0.026 | gandotinib 0.004 | tozasertib -0.008 | [4] 0.045 | doramapimod 0.028 | ispinesib 0.054 | bafetinib 0.032 | [5] -0.001 | nilotinib 0.037 | [6] -0.028 | dasatinib -0.013 | [7] -0.076 | [8] 0.003 | [9] -0.014 | tipifarnib 0.039 | mubritinib 0.031

MANEA (UniProt Q5SRI9)
inactive: [1] 0.028 | crizotinib 0.044 | [2] 0.191 | [3] 0.007 | duvelisib 0.013 | gandotinib -0.114 | tozasertib -0.027 | [4] 0.113 | doramapimod -0.175 | ispinesib 0.024 | bafetinib 0.06 | [5] -0.162 | nilotinib 0.037 | [6] -0.005 | dasatinib 0.092 | [7] 0.026 | [8] -0.041 | [9] -0.047 | tipifarnib 0.039 | mubritinib 0.011

MAK16 (UniProt Q9BXY0)
inactive: [1] -0.021 | crizotinib -0.04 | [2] -0.103 | [3] 0.132 | duvelisib 0.021 | gandotinib -0.037 | tozasertib 0.01 | [4] -0.043 | doramapimod 0.151 | ispinesib -0.09 | bafetinib 0.125 | [5] -0.031 | nilotinib 0.02 | [6] 0.107 | dasatinib 0.187 | [7] 0.015 | [8] -0.093 | [9] -0.049 | tipifarnib -0.001 | mubritinib -0.031

LZIC isoform 2 (UniProt Q8WZA0)
inactive: [1] 0.045 | crizotinib 0.011 | [2] 0.041 | [3] -0.034 | duvelisib 0.037 | gandotinib 0.018 | tozasertib -0.021 | [4] -0.04 | doramapimod -0.004 | ispinesib -0.046 | bafetinib -0.066 | [5] -0.069 | nilotinib -0.007 | [6] -0.008 | dasatinib 0.032 | [7] 0.015 | [8] 0.047 | [9] -0.01 | tipifarnib 0.028 | mubritinib 0.014

MAN2C1 isoform 4 (UniProt Q9NTJ4)
inactive: [1] -0.022 | crizotinib 0.044 | [2] 0.019 | [3] 0.121 | duvelisib 0.024 | gandotinib 0.03 | tozasertib -0.019 | [4] -0.07 | doramapimod -0.003 | ispinesib -0.045 | bafetinib 0.03 | [5] -0.055 | nilotinib -0.116 | [6] 0.065 | dasatinib 0.088 | [7] -0.08 | [8] -0.09 | [9] 0.149 | tipifarnib 0.046 | mubritinib -0.028

LZTFL1 (UniProt Q9NQ48)
inactive: [1] 0 | crizotinib -0.015 | [2] 0.032 | [3] -0.086 | duvelisib 0.034 | gandotinib -0.074 | tozasertib -0.027 | [4] -0.022 | doramapimod 0.021 | ispinesib 0.031 | bafetinib -0.037 | [5] 0.024 | nilotinib 0.001 | [6] 0.018 | dasatinib -0.026 | [7] -0.026 | [8] 0.041 | [9] 0 | tipifarnib -0.055 | mubritinib 0.033

Quoted from the listing (2 entries):
LZIC isoform 2 (UniProt Q8WZA0)
inactive: [1] 0.045 | crizotinib 0.011 | [2] 0.041 | [3] -0.034 | duvelisib 0.037 | gandotinib 0.018 | tozasertib -0.021 | [4] -0.04 | doramapimod -0.004 | ispinesib -0.046 | bafetinib -0.066 | [5] -0.069 | nilotinib -0.007 | [6] -0.008 | dasatinib 0.032 | [7] 0.015 | [8] 0.047 | [9] -0.01 | tipifarnib 0.028 | mubritinib 0.014

MAN2C1 isoform 4 (UniProt Q9NTJ4)
inactive: [1] -0.022 | crizotinib 0.044 | [2] 0.019 | [3] 0.121 | duvelisib 0.024 | gandotinib 0.03 | tozasertib -0.019 | [4] -0.07 | doramapimod -0.003 | ispinesib -0.045 | bafetinib 0.03 | [5] -0.055 | nilotinib -0.116 | [6] 0.065 | dasatinib 0.088 | [7] -0.08 | [8] -0.09 | [9] 0.149 | tipifarnib 0.046 | mubritinib -0.028

Additional records

LTA4H (UniProt P09960)
inactive: [1] 0.014 | crizotinib 0.027 | [2] 0.093 | [3] -0.126 | duvelisib 0.012 | gandotinib -0.026 | tozasertib 0.017 | [4] 0.013 | doramapimod -0.017 | ispinesib 0.035 | bafetinib -0.037 | [5] 0.022 | nilotinib -0.001 | [6] 0.011 | dasatinib -0.03 | [7] 0 | [8] 0.025 | [9] 0.011 | tipifarnib -0.102 | mubritinib 0.037

MANF (UniProt P55145)
inactive: [1] -0.026 | crizotinib 0.084 | [2] 0.027 | [3] -0.077 | duvelisib -0.013 | gandotinib 0.015 | tozasertib -0.025 | [4] -0.03 | doramapimod -0.029 | ispinesib 0.001 | bafetinib -0.035 | [5] -0.042 | nilotinib -0.01 | [6] 0.038 | dasatinib 0.049 | [7] -0.02 | [8] 0.011 | [9] 0.021 | tipifarnib 0.008 | mubritinib -0.005

MAP7D1 (UniProt Q3KQU3)
inactive: [1] 0.034 | crizotinib -0.075 | [2] -0.458 | [3] 0.414 | duvelisib -0.141 | gandotinib 0.261 | tozasertib 0.023 | [4] 0.01 | doramapimod 0.261 | ispinesib -0.173 | bafetinib 0.313 | [5] 0 | nilotinib -0.067 | [6] 0.11 | dasatinib 0.044 | [7] -0.011 | [8] -0.266 | [9] -0.152 | tipifarnib 0.085 | mubritinib -0.088

M6PR (UniProt P20645)
inactive: [1] 0.031 | crizotinib 0.082 | [2] -0.012 | [3] -0.168 | duvelisib -0.017 | gandotinib -0.011 | tozasertib 0.032 | [4] -0.012 | doramapimod 0.003 | ispinesib -0.09 | bafetinib -0.157 | [5] -0.098 | nilotinib 0.005 | [6] 0.032 | dasatinib 0.042 | [7] -0.024 | [8] 0.016 | [9] 0.003 | tipifarnib -0.096 | mubritinib 0.004

MAPK3 (UniProt P27361)
inactive: [1] -0.064 | crizotinib -0.008 | [2] 0.013 | [3] -0.119 | duvelisib -0.01 | gandotinib -0.024 | tozasertib 0.012 | [4] -0.048 | doramapimod -0.063 | ispinesib 0.03 | bafetinib 0.055 | [5] 0.114 | nilotinib -0.006 | [6] 0.068 | dasatinib 0.033 | [7] 0.02 | [8] 0.019 | [9] -0.008 | tipifarnib -0.119 | mubritinib -0.011

MAN2A1 (UniProt Q16706)
inactive: [1] 0.076 | crizotinib 0.021 | [2] 0.011 | [3] 0.004 | duvelisib 0.023 | gandotinib -0.01 | tozasertib 0.003 | [4] -0.027 | doramapimod -0.016 | ispinesib 0.032 | bafetinib -0.015 | [5] 0.023 | nilotinib 0.01 | [6] -0.01 | dasatinib 0.018 | [7] -0.025 | [8] 0.023 | [9] -0.014 | tipifarnib 0.097 | mubritinib 0.019

LSM6 (UniProt P62312)
inactive: [1] 0.089 | crizotinib 0.059 | [2] 0.016 | [3] -0.202 | duvelisib -0.042 | gandotinib 0 | tozasertib 0.024 | [4] -0.05 | doramapimod -0.024 | ispinesib 0.099 | bafetinib -0.019 | [5] 0.203 | nilotinib 0.01 | [6] 0.025 | dasatinib 0.055 | [7] -0.009 | [8] 0.055 | [9] -0.018 | tipifarnib -0.016 | mubritinib 0.009

LYPLAL1 (UniProt Q5VWZ2)
inactive: [1] 0.025 | crizotinib -0.015 | [2] 0.083 | [3] -0.037 | duvelisib 0.017 | gandotinib -0.078 | tozasertib 0.031 | [4] 0.019 | doramapimod -0.034 | ispinesib 0.044 | bafetinib 0.001 | [5] 0.027 | nilotinib 0.018 | [6] 0.039 | dasatinib -0.054 | [7] -0.042 | [8] 0.098 | [9] -0.001 | tipifarnib -0.072 | mubritinib 0.04

LYRM2 (UniProt Q9NU23)
inactive: [1] -0.058 | crizotinib 0.067 | [2] 0.117 | [3] -0.078 | duvelisib 0.041 | gandotinib 0.002 | tozasertib 0 | [4] -0.005 | doramapimod -0.011 | ispinesib 0.077 | bafetinib 0.031 | [5] -0.051 | nilotinib 0.015 | [6] 0.004 | dasatinib -0.02 | [7] -0.013 | [8] 0.058 | [9] 0.016 | tipifarnib -0.078 | mubritinib 0.001

MARS (UniProt P56192)
inactive: [1] -0.01 | crizotinib -0.101 | [2] -0.039 | [3] 0.092 | duvelisib -0.018 | gandotinib -0.033 | tozasertib -0.036 | [4] 0.032 | doramapimod 0.057 | ispinesib -0.16 | bafetinib -0.007 | [5] 0.038 | nilotinib -0.039 | [6] -0.012 | dasatinib -0.024 | [7] 0.016 | [8] -0.037 | [9] -0.081 | tipifarnib -0.016 | mubritinib -0.008
